This assay relates to L1210 leukemia ip in BDF1 mice, survival T/C. Nature of the assay: NCI In Vivo Anticancer Drug Screen. Data for tumor model L1210 Leukemia (intraperitoneal) in B6D2F1 (BDF1) mice. To be noted: T/C endpoint: mean survival time, higher T/C = longer survival.
The mark [1] stands for this setting: dose: 400.0 mg/kg/injection, schedule: Q04DX002 (ip), vehicle: saline with Tween-80.
Where [2] appears, read: dose: 400.0 mg/kg/injection, schedule: Q01DX001 (ip), vehicle: carboxymethylcellulose (CMC).
The mark [3] stands for this setting: dose: 200.0 mg/kg/injection, schedule: Q04DX003 (ip), vehicle: Klucel (hydroxypropylcellulose) (HPC).
[4] abbreviates: dose: 400.0 mg/kg/injection, schedule: Q04DX003 (ip), vehicle: Klucel (hydroxypropylcellulose) (HPC).
[5] abbreviates: dose: 150.0 mg/kg/injection, schedule: Q01DX001 (ip), vehicle: saline.
The mark [6] stands for this setting: dose: 300.0 mg/kg/injection, schedule: Q01DX001 (ip), vehicle: saline.
Setting [7] is: dose: 100.0 mg/kg/injection, schedule: Q04DX003 (ip), vehicle: Klucel (hydroxypropylcellulose) (HPC).
[8] abbreviates: dose: 300.0 mg/kg/injection, schedule: Q01DX001 (ip), vehicle: other.
The mark [9] stands for this setting: dose: 75.0 mg/kg/injection, schedule: Q01DX001 (ip), vehicle: saline.
The mark [10] stands for this setting: dose: 200.0 mg/kg/injection, schedule: Q04DX003 (ip), vehicle: saline with Tween-80.
[11] abbreviates: dose: 400.0 mg/kg/injection, schedule: Q04DX003 (ip), vehicle: saline with Tween-80.

The list is a part of this screen's results and no random one: it gathers tests that were run many times, whatever their T/C, doses with no T/C, and many T/C values between a quarter and a half above the control. Other doses and runs of a compound stand elsewhere. T/C: endpoint of the treated group in % of that of the vehicle group. Some doses have a count of surviving animals in place of a T/C: the source holds a T/C of zero for them, seemingly a mark for toxic or unscored doses. Some doses without a T/C left all or most animals alive at the check, yet need not have been tolerated: the source hardly ever lists a survival T/C far under the control, and the zero likely stands for such cases as well. Survivors were counted at the toxicity check, usually on the fifth day, unless a day is given; later deaths do not show. Schedule codes are those of the source, taken here to give the interval after Q, in days (D) or hours (H), and the number of doses after X. Some entries hold several experiments; the values are given in rising order. Some schedules carry Z or #; the key to these is not given.

As for `N#CC(C#N)=C1SCS1`, the survivor count by setting is: (dose: 100.0 mg/kg/injection, schedule: Q04DX002 (ip), vehicle: saline with Tween-80) 1 of 3; (dose: 200.0 mg/kg/injection, schedule: Q04DX002 (ip), vehicle: saline with Tween-80) 0 of 3; under setting [1], 0 of 3.
As for `NC(N)=N/N=C(\c1ccc(Br)cc1)C1CC1`, the survivor count runs as follows: (dose: 120.0 mg/kg/injection, schedule: Q01DX Z (ip), vehicle: carboxymethylcellulose (CMC)) 0 of 6; (dose: 480.0 mg/kg/injection, schedule: Q01DX Z (oral), vehicle: carboxymethylcellulose (CMC)) 0 of 6; (dose: 960.0 mg/kg/injection, schedule: Q01DX Z (oral), vehicle: carboxymethylcellulose (CMC)) 1 of 6.
Take `Cc1cc(/C=N/Nc2ccc3cccc(O)c3n2)c(O)c2ncccc12`: the survivor count by setting is: (dose: 100.0 mg/kg/injection, schedule: Q01DX001 (ip), vehicle: carboxymethylcellulose (CMC)) 4 of 4; under setting [2], 3 of 4.
With `CN(C)c1ncnc2c1cnn2C`, the survivor count under setting [2] is reported as 2 of 6.
For the molecule `Cc1ccc([N+](=O)[O-])cc1N=Nc1ccc(O)c(C(=O)O)c1`, the survivor count is 1 of 6 under setting [3] and 0 of 6 under setting [4].
For `Cc1cc(N(CCO)Cc2ccccc2)nc2ccccc12`, the survivor count is, setting by setting: under setting [5], 3 of 6; under setting [6], 0 of 6.
For the molecule `c1cc(N=NNc2cccc(C3=NCCN3)c2)cc(C2=NCCN2)c1`, the survivor count is 1 of 6 (dose: 62.0 mg/kg/injection, schedule: Q01DX015 (ip), vehicle: water); 0 of 6 (dose: 125.0 mg/kg/injection, schedule: Q01DX015 (ip), vehicle: water); 0 of 6 (dose: 250.0 mg/kg/injection, schedule: Q01DX015 (ip), vehicle: water); 0 of 6 (dose: 500.0 mg/kg/injection, schedule: Q01DX015 (ip), vehicle: water).
In the case of `N#CC(NC(=O)NCCCl)c1ccccc1` (stereo not given), the survivor count under setting [4] is reported as 3 of 6.
Take `O=C1NCC2(CCCCCC2)O1`: the survivor count (dose: 400.0 mg/kg/injection, schedule: Q01DX001 (ip), vehicle: saline) is given as 3 of 6.
In the case of `COc1ccc2c(c1)[nH]c1c(C)nccc12`, the survivor count (dose: 450.0 mg/kg/injection, schedule: Q01DX Z (ip), vehicle: saline) is 1 of 6.
Regarding `Cc1ccc(C(C)(C)C)c(OCC2=NCCN2)c1`, the survivor count is, setting by setting: under setting [7], 3 of 6; under setting [3], 0 of 6; under setting [4], 0 of 6.
For the molecule `C[N+](C)(Cc1ccccc1)CC(O)COc1ccccc1` (stereo not given), the survivor count is, setting by setting: (dose: 100.0 mg/kg/injection, schedule: Q01DX001 (ip), vehicle: saline with Tween-80) 0 of 6; (dose: 200.0 mg/kg/injection, schedule: Q01DX001 (ip), vehicle: saline with Tween-80) 1 of 6; (dose: 400.0 mg/kg/injection, schedule: Q01DX001 (ip), vehicle: saline with Tween-80) 0 of 6.
`Cc1ccc(NC(=S)N2CCC(CCCC3CCN(C(=S)Nc4ccc(C)cc4C)CC3)CC2)c(C)c1`: under setting [4], the survivor count is 6 of 6.
Take `CCC1(c2ccccc2)C(=O)NC(=S)N(C)C1=O` (stereo not given): under setting [8], the survivor count is 0 of 6.
As to `CC1(O)Cn2c(nc3nccnc32)S1` (stereo not given), the survivor count was 0 of 6 (dose: 200.0 mg/kg/injection, schedule: Q01DX009 (ip), vehicle: saline) and 3 of 6 (dose: 400.0 mg/kg/injection, schedule: Q04DX003 (ip), vehicle: saline).
Turning to `O=S1(=O)CC(N2CCCCC2)C1CN1CCCCC1` (stereo not given), the survivor count under setting [6] is given as 0 of 6.
In the case of `IP(c1ccccc1)(c1ccccc1)(c1ccccc1)N1C2CCCCC21` (stereo not given), the survivor count is recorded as 1 of 6 (dose: 2.5 mg/kg/injection, schedule: Q04DX003 (ip), vehicle: saline); 1 of 6 (dose: 3.74 mg/kg/injection, schedule: Q01DX009 (ip), vehicle: saline); 2 of 6 (dose: 5.0 mg/kg/injection, schedule: Q01DX001 (ip), vehicle: acetone); 0 of 6 (dose: 5.68 mg/kg/injection, schedule: Q01DX009 (ip), vehicle: saline); 0 of 6 (dose: 8.52 mg/kg/injection, schedule: Q01DX009 (ip), vehicle: saline); 0 of 6 (dose: 10.0 mg/kg/injection, schedule: Q01DX001 (ip), vehicle: saline). Further, the survivor count is given as 1 of 6 (dose: 20.0 mg/kg/injection, schedule: Q01DX001 (ip), vehicle: saline); 0 of 6 (dose: 40.0 mg/kg/injection, schedule: Q01DX001 (ip), vehicle: saline); 0 of 6 under setting [9]; 0 of 6 under setting [5]; 0 of 6 under setting [6].
In the case of `C[N+](C)(C)CCOC(=O)c1ccccc1CCl`, under setting [1], the survivor count is 2 of 3.
On to `CNCCc1cc2c(c(OC)c1/C=C/C(=O)/C=C/c1c(CCNC)cc3c(c1OC)OCO3)OCO2`, for which the survivor count (dose: 300.0 mg/kg/injection, schedule: Q01DX001 (ip), vehicle: carboxymethylcellulose (CMC)) is 5 of 6.
Take `C(=C/c1ccccc1)/C[P+](c1ccccc1)(c1ccccc1)c1ccccc1`: the survivor count reads like this: (dose: 100.0 mg/kg/injection, schedule: Q04DX003 (ip), vehicle: saline with Tween-80) 0 of 6; under setting [10], 0 of 6; under setting [11], 0 of 6.
As for `Cc1ccc(-c2nc3ccccc3c(=O)o2)cc1`, the survivor count (dose: 200.0 mg/kg/injection, schedule: Q01DX009 (ip), vehicle: gum acacia) is 2 of 6 and 3 of 6; the survivor count (dose: 400.0 mg/kg/injection, schedule: Q04DX003 (ip), vehicle: gum acacia) is 0 of 6.
Take `O=C1C=C(c2ccccc2)C(c2ccccc2)C1O` (stereo not given): under setting [8], the survivor count is 2 of 6.
Turning to `C#CCOCCCC(=O)O`, the survivor count (dose: 400.0 mg/kg/injection, schedule: Q01DX009 (ip), vehicle: saline) was 1 of 6.
On to `O=C(CC(NC(=O)OCc1ccccc1)C(=O)OCc1ccccc1)OCc1ccccc1` (stereo not given), for which the survivor count (dose: 100.0 mg/kg/injection, schedule: Q01DX009 (ip), vehicle: Klucel (hydroxypropylcellulose) (HPC)) was 6 of 6.
Consider `Cc1ccc(NC(=O)Oc2cccnc2)cc1NC(=O)Oc1cccnc1`, for which the survivor count (dose: 400.0 mg/kg/injection, schedule: Q01DX009 (ip), vehicle: Klucel (hydroxypropylcellulose) (HPC)) is reported as 4 of 6.
For the molecule `Cc1c([N+](=O)[O-])cc(C(C)(C)C)c(OC(=O)Nc2ccccc2)c1[N+](=O)[O-]`, the survivor count under setting [7] is given as 0 of 6, the survivor count under setting [3] is on record as 0 of 6 and the survivor count under setting [4] is listed as 0 of 6.
Turning to `O=C(CCN1CC1)OCC1CC1`, the survivor count is listed as 6 of 6 (dose: 40.0 mg/kg/injection, schedule: Q01DX009 (ip), vehicle: Klucel (hydroxypropylcellulose) (HPC)); 4 of 6 (dose: 80.0 mg/kg/injection, schedule: Q01DX009 (ip), vehicle: Klucel (hydroxypropylcellulose) (HPC)); 6 of 6 under setting [7]; 1 of 6 under setting [3]; 0 of 6 under setting [4].
For `CC(C)(Br)C(=O)c1ccc([N+](=O)[O-])o1`, the survivor count by setting is: (dose: 12.5 mg/kg/injection, schedule: Q01DX009 (ip), vehicle: saline with Tween-80) 6 of 6; (dose: 25.0 mg/kg/injection, schedule: Q01DX009 (ip), vehicle: saline with Tween-80) 6 of 6; (dose: 50.0 mg/kg/injection, schedule: Q01DX009 (ip), vehicle: saline with Tween-80) 6 of 6; (dose: 100.0 mg/kg/injection, schedule: Q01DX009 (ip), vehicle: saline with Tween-80) 4 of 6 and 5 of 6; under setting [10], 6 of 6; under setting [11], 2 of 6.
For the molecule `Nc1cc(N)c(N)cc1N`, the survivor count under setting [9] was 0 of 6, the survivor count under setting [5] is given as 0 of 6 and the survivor count under setting [6] was 0 of 6.

The values are drawn from PubChem BioAssay AID248 (DTP/NCI, 2004).
